From article PMC7438092
These are yes or no findings as the source states them, for the method shown. Some results given as binding are weak or reduced against the parent protein; the word gives no strength. Tags and fused reporters may be left off the sequences shown.

Columns and labels:
Conditions in all cases: remark: other sources report otherwise
[1] = target: T1, Vps24 (Saccharomyces cerevisiae ESCRT-III subunit), full length, wild type (Saccharomyces cerevisiae), P36095; assay: co-sedimentation; pelletation without liposomes; purified proteins at 2 mg/ml, 175,000g for 45 min at 20°C, supernatant and pellet by SDS-PAGE; both purified
T1 chain: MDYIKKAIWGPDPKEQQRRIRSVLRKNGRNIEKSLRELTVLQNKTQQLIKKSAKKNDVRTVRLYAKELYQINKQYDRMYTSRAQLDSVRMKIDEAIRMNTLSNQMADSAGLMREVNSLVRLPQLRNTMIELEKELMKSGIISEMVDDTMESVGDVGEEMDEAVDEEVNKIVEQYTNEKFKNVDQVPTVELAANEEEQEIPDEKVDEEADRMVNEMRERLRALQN

[2] = target: T1, Vps24 (Saccharomyces cerevisiae …); assay: negative-stain electron microscopy; purified protein looked at for filaments, 2% uranyl acetate; wild type at 0.5 to 4.0 mg/ml incubated for 1 or 24 hours; both purified
[3] = target: T1, Vps24 (Saccharomyces cerevisiae …); assay: cryo-EM structure; helical reconstruction of filaments of purified Vps24 concentrated to 5.0 mg/ml, 4°C overnight, polymers enriched by ultracentrifugation; 100 mM NaCl, 20 mM tris (pH 8); domain-swapped dimers in a double-stranded filament; both purified

Measured: binding

B1: Vps24 (Saccharomyces cerevisiae ESCRT-III subunit), full length, wild type, P36095 1-224 (protein)
chain: MDYIKKAIWGPDPKEQQRRIRSVLRKNGRNIEKSLRELTVLQNKTQQLIKKSAKKNDVRTVRLYAKELYQINKQYDRMYTSRAQLDSVRMKIDEAIRMNTLSNQMADSAGLMREVNSLVRLPQLRNTMIELEKELMKSGIISEMVDDTMESVGDVGEEMDEAVDEEVNKIVEQYTNEKFKNVDQVPTVELAANEEEQEIPDEKVDEEADRMVNEMRERLRALQN
binds: [1] | [2] | [3]
